The values below come from PMC10932366.

The chains behind the UniProt entries cited, without tags or fusion partners.
UniProt O94776: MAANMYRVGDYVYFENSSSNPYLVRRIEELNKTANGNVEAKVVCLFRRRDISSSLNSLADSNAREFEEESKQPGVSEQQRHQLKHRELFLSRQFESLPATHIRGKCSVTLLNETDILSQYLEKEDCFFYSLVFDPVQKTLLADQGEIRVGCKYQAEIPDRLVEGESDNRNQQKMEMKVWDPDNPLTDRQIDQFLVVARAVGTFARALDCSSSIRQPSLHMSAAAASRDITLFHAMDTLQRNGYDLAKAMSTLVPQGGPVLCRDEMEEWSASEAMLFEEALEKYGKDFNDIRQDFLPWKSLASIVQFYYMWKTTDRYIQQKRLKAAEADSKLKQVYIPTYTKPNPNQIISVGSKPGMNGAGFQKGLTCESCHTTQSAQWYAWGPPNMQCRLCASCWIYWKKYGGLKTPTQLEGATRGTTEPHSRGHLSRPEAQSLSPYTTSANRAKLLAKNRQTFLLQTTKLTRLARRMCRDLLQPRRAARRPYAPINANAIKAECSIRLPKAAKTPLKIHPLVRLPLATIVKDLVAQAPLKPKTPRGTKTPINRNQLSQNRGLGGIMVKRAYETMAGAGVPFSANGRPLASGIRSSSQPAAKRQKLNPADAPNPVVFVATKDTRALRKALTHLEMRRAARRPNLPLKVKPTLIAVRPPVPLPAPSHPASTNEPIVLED

These are yes or no findings as the source states them, for the method shown. Binding seen in cells or lysates may run through a third protein. Some entries that bind do so weakly or less than the wild type.

The target of the experiment is metastasis-associated protein 2 (MTA2) (human (endogenous in AGS and MKN-45)) (UniProt O94776). The experiment in a line: co-IP; Co-IP in AGS and MKN-45 cells; also in cells with UCHL3 knockdown or overexpression (Figure 6B,C) and with empty vector or LV-circMTA2 (Figure 6E); no co-IP protocol in the methods.

B1: ubiquitin carboxyl-terminal hydrolase L3 (UCHL3) (enzyme, UniProt P15374 1-230)
chain: MEGQRWLPLEANPEVTNQFLKQLGLHPNWQFVDVYGMDPELLSMVPRPVCAVLLLFPITEKYEVFRTEEEEKIKSQGQDVTSSVYFMKQTISNACGTIGLIHAIANNKDKMHFESGSTLKKFLEESVSMSPEERARYLENYDAIRVTHETSAHEGQTEAPSIDEKVDLHFIALVHVDGHLYELDGRKPFPINHGETSDETLLEDAIEVCKKFMERDPDELRFNAIALSAA
Consider B1, for which the binding entry is on record as “binds”.
